Measured values as given in patent publication US20230331781A1, “PAR4 DERIVED PEPTIDES, ANALOGS AND USES THEREOF” (Yissum Research Development Company of the Hebrew …, priority 2019, published 2023).
Residue numbers refer to the chain shown, from its start. These are yes or no findings as the source states them, for the method shown. In cells and extracts the contact can be indirect. Some entries that bind do so weakly or less than the wild type.

Amino acid sequences for entries named in this document (tags omitted). Residues count along the entry.
UniProt P55085, residues 37-397: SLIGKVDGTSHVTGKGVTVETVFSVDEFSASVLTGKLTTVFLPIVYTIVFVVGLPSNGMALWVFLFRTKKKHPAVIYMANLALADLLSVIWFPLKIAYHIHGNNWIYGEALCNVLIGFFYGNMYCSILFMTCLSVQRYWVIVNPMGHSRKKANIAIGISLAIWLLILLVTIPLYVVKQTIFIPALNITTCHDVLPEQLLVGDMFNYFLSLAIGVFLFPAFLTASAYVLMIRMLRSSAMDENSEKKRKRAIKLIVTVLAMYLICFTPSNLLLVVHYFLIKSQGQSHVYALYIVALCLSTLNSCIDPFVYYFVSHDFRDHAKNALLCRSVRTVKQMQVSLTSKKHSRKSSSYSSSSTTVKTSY
UniProt P31749: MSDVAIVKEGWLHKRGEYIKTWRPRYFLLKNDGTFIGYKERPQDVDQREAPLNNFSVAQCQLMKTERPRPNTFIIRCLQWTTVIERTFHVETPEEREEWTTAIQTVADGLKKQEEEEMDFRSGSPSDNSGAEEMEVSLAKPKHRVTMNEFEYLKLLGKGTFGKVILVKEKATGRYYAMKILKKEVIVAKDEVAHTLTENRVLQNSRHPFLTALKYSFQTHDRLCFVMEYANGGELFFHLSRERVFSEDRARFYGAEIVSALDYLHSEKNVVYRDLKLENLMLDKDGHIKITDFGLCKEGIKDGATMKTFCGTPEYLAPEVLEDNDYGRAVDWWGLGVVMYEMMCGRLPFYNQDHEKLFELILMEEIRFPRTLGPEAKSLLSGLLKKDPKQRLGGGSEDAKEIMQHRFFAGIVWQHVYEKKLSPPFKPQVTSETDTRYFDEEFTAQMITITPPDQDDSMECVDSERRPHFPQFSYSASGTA

Key:
[1] = molecular target: T1, PAR4 (protease-activated receptor 4), wt flg-hPar4 (human) (UniProt Q96RI0); assay: co-IP, anti-flg IP and anti-Akt blot (FIG. 3D, 4F)
T1 sequence (looked up): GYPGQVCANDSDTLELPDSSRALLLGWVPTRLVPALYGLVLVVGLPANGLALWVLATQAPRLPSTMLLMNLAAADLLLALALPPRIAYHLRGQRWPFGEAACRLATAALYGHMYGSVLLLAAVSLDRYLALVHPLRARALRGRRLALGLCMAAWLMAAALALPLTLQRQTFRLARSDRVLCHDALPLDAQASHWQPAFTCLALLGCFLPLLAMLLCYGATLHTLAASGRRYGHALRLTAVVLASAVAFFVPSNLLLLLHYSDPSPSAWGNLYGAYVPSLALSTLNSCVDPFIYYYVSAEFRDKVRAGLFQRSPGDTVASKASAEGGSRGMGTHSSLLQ

flg-Par4MutE346A (human) [2] = molecular target: T2, flg-Par4MutE346A (human) (UniProt Q96RI0); assay: co-IP: anti-flg IP from HEK293 cells transfected with the mutant, anti-Akt blot (FIG. 4E)
T2 sequence (looked up): T1 sequence (looked up) with E299A

[3] = molecular target: T1, PAR4 (protease-activated receptor 4), wt flg-hPar4 (human); assay: co-IP: anti-flg IP from HEK293 cells transfected with wt flg-Par4, anti-Akt blot (FIG. 4E, 4F)
flg-Par4MutE346A (human) [4] = molecular target: T2, flg-Par4MutE346A (human); assay: co-IP: anti-flg IP from HEK293 cells transfected with flg-Par4MutE346A, anti-Akt blot (FIG. 4E)
[5] = molecular target: PAR2 (protease-activated receptor 2), flag-hPar2 (human) (UniProt P55085); assay: co-IP from HEK 293 cells transfected with flag-hPar2 after SLIGKV activation, anti-Akt blot (FIG. 11)
[6] = molecular target: T1, PAR4 (protease-activated receptor 4), wt flg-hPar4 (human); assay: co-IP: anti-flg IP of flg-hPar4 from HU cell lysates after AYPGKF activation, anti-Akt Western blot (FIG. 1)

Measured: binding

Akt/PKB (protein kinase B) (from UniProt P31749 1-480) (enzyme)
binds: all assays above
